Reference: patent US8222430B2, “1-heterodiene derivative and harmful organism control agent” (priority 2008, dated 2012)
Some entries share one result that the patent states for a list of compounds.

Columns and labels:
Type in all cases: in vivo
Pseudaletia separate = test: Confirmation of efficacy against Pseudaletia separate (maize leaf soak, insect mortality); details: 125 ppm; maize leaves soaked 30 seconds; second-instar larvae; after five days; 25° C., humidity 65%
Text: Maize leaves were soaked in the resulting chemical solution for 30 seconds and air-dried. Then the leaves were put on Petri dishes lined with a filter paper, followed by inoculating 5 second-instar larvae. […] Mortality was investigated after five days, and the insect mortality rate was obtained. The test was repeated twice.

Aphis gossypii = test: Confirmation of efficacy against Aphis gossypii (cucumber seedlings, insect mortality); details: 125 ppm; cucumber seedlings parasitized with offspring; after five days; 25° C., humidity 65%
Text: Mortality was investigated after five days, and the insect mortality rate was obtained.
The test was repeated twice.

Bemisia tabaci = test: Confirmation of efficacy against Bemisia tabaci (sprayed detached tomato leaves, insect mortality); details: 125 ppm, B type adults, after three days, 25° C., humidity 65%
Text: Detached tomato leaves were sprayed with the resulting chemical solution and air-dried. Then, the leaves were set on flasks in a manner that the surface of the leaves face upward. […] The test was repeated twice.

| Structure (SMILES) | mortality rate (Pseudaletia separate) [%] | mortality rate (Aphis gossypii) [%] | mortality rate (Bemisia tabaci) [%] |
| --- | --- | --- | --- |
| Cc1ccc(/N=C2\SC(C)C\C2=C/Sc2ccccc2)cc1 (racemic) [Compound 1a-33] | 100 | 100 | 100 |
| Cc1ccc(/N=C2\OC(C)C\C2=C/Sc2ccccc2)cc1 (racemic) [Compound 1a-80] | 100 | 100 | 100 |
| CCCC1CC(=C\Sc2ccccc2)/C(=N/c2ccc(C)cc2)O1 (racemic) [Compound 1a-84] | 100 | 100 | 100 |
| Cc1ccc(/N=C2\OC(c3ccccc3)C\C2=C/Sc2ccccc2)cc1 (racemic) [Compound 1a-85] | 100 | 100 | 100 |
| Cc1ccc(N2C(=S)/C(=C/Sc3ccccc3)CC2C)cc1 (racemic) [Compound 3a-27] | 100 | 100 | 100 |
| Cc1ccccc1/N=C1\SCC\C1=C/Sc1ccccc1 [Compound 1a-2] | 100 | 100 | 100 |
| Cc1cccc(/N=C2\SCC\C2=C/Sc2ccccc2)c1 [Compound 1a-3] | 100 | 100 | 100 |
| Cc1ccc(/N=C2\SCC\C2=C/Sc2ccccc2)cc1 [Compound 1a-4] | 100 | 100 | 100 |
| CC(C)c1ccc(/N=C2\SCC\C2=C/Sc2ccccc2)cc1 [Compound 1a-5] |  |  | 100 |
| Cc1ccc(/N=C2\SCC\C2=C/Sc2ccc(C)cc2)cc1 [Compound 1a-31] | 100 | 100 | 100 |
| Cc1ccc(/N=C2\SCC\C2=C/Sc2ccc(F)cc2)cc1 [Compound 1a-32] | 100 | 100 | 100 |
| Cc1ccc(/N=C2\OCC\C2=C/Sc2ccccc2)cc1 [Compound 1a-35] | 100 |  | 100 |
| Cc1ccc(/N=C2\SCC\C2=C/Sc2cccc(F)c2)cc1 [Compound 1a-82] | 100 |  | 100 |
| Cc1ccc(/N=C2\OC(C)(C)C\C2=C/Sc2ccccc2)cc1 [Compound 1a-86] | 100 | 100 | 100 |
| Cc1ccc(/N=C2\SCCC\C2=C/Sc2ccccc2)cc1 [Compound 2a-4] | 100 | 100 | 100 |
| COc1ccc(/N=C2\SCCC\C2=C/Sc2ccccc2)cc1 [Compound 2a-7] | 100 | 100 | 100 |
| Cc1ccc(/N=C2\SCCC\C2=C/Sc2ccc(F)cc2)cc1 [Compound 2a-78] | 100 | 100 | 100 |
| Clc1ccc(/N=C2\OCCC\C2=C/Sc2ccccc2)cc1 [Compound 2a-79] | 100 | 100 | 100 |
| Clc1ccc(/N=C2\SCCC\C2=C/Sc2ccccc2)cc1 [Compound 2a-80] | 100 | 100 | 100 |
| Cc1ccc(/N=C2\OCCC\C2=C/Sc2ccccc2)cc1 [Compound 2a-81] | 100 | 100 | 100 |
| Cc1ccc(/N=C2\OCCC\C2=C/Sc2ccccc2)cc1C [Compound 2a-82] |  | 100 | 100 |
| Cc1ccc(/N=C2\OC(C)CC\C2=C/Sc2ccccc2)cc1 (stereo not drawn) [Compound 2a-83] | 100 |  | 100 |
| CCCC1CCC(=C\Sc2ccccc2)/C(=N/c2ccc(C)cc2)O1 (stereo not drawn) [Compound 2a-84] | 100 | 100 | 100 |
| Cc1ccc(/N=C2\OC(C)(C)CC\C2=C/Sc2ccccc2)cc1 [Compound 2a-85] | 100 |  | 100 |
| Cc1ccc(/N=C2\OC(c3ccccc3)CC\C2=C/Sc2ccccc2)cc1 (stereo not drawn) [Compound 2a-86] | 100 |  | 100 |
| Cc1ccc(/N=C2\SC(c3ccccc3)CC\C2=C/Sc2ccccc2)cc1 (stereo not drawn) [Compound 2a-87] | 100 |  | 100 |
| Cc1ccc(/N=C2\SCCC\C2=C\Sc2ccc(F)cc2)cc1 [Compound 2b-36] | 100 | 100 |  |
| S=C1/C(=C/Sc2ccccc2)CCN1c1ccccc1 [Compound 3a-1] |  |  | 100 |
| Cc1ccc(N=C2SCCCCC2=CSc2ccccc2)cc1 [Compound 4e-1] | 100 | 100 | 100 |
